First the molecules themselves.
T1: Flag-tagged full-length SNIP1 (Smad Nuclear Interacting Protein 1) (UniProt Q8BIZ6)
T1 sequence: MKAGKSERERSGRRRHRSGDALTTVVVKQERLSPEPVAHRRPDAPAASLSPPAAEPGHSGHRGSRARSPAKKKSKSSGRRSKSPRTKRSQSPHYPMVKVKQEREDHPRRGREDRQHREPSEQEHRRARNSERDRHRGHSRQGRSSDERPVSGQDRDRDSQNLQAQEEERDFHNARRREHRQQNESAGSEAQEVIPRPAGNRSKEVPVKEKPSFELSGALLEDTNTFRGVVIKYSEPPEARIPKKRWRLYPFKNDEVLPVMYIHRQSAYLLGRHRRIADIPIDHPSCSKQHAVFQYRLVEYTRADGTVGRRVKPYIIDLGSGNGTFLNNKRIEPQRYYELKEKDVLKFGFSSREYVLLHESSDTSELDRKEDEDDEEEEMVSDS

Chains of the proteins cited; added tags and fusions are not shown.
UniProt O35691: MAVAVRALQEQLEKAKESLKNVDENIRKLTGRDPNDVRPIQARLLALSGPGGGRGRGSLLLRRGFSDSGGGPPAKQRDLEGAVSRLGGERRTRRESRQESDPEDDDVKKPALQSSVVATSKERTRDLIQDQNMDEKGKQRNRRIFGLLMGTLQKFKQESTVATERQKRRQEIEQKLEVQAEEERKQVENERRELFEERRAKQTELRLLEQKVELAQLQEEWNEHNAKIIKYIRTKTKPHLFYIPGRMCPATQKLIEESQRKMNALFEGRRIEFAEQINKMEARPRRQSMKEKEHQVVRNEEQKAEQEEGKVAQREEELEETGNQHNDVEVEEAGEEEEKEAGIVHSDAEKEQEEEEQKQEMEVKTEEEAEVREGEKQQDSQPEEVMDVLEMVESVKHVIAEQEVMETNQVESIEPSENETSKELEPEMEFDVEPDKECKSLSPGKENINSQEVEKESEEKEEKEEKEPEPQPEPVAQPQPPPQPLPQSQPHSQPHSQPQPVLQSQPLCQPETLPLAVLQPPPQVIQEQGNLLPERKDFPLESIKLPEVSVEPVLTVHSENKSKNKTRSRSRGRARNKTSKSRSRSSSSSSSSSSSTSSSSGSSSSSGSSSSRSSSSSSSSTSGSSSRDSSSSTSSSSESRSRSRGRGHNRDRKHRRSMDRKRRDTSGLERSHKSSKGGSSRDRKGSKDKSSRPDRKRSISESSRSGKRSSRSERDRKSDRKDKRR
UniProt Q8BTI8: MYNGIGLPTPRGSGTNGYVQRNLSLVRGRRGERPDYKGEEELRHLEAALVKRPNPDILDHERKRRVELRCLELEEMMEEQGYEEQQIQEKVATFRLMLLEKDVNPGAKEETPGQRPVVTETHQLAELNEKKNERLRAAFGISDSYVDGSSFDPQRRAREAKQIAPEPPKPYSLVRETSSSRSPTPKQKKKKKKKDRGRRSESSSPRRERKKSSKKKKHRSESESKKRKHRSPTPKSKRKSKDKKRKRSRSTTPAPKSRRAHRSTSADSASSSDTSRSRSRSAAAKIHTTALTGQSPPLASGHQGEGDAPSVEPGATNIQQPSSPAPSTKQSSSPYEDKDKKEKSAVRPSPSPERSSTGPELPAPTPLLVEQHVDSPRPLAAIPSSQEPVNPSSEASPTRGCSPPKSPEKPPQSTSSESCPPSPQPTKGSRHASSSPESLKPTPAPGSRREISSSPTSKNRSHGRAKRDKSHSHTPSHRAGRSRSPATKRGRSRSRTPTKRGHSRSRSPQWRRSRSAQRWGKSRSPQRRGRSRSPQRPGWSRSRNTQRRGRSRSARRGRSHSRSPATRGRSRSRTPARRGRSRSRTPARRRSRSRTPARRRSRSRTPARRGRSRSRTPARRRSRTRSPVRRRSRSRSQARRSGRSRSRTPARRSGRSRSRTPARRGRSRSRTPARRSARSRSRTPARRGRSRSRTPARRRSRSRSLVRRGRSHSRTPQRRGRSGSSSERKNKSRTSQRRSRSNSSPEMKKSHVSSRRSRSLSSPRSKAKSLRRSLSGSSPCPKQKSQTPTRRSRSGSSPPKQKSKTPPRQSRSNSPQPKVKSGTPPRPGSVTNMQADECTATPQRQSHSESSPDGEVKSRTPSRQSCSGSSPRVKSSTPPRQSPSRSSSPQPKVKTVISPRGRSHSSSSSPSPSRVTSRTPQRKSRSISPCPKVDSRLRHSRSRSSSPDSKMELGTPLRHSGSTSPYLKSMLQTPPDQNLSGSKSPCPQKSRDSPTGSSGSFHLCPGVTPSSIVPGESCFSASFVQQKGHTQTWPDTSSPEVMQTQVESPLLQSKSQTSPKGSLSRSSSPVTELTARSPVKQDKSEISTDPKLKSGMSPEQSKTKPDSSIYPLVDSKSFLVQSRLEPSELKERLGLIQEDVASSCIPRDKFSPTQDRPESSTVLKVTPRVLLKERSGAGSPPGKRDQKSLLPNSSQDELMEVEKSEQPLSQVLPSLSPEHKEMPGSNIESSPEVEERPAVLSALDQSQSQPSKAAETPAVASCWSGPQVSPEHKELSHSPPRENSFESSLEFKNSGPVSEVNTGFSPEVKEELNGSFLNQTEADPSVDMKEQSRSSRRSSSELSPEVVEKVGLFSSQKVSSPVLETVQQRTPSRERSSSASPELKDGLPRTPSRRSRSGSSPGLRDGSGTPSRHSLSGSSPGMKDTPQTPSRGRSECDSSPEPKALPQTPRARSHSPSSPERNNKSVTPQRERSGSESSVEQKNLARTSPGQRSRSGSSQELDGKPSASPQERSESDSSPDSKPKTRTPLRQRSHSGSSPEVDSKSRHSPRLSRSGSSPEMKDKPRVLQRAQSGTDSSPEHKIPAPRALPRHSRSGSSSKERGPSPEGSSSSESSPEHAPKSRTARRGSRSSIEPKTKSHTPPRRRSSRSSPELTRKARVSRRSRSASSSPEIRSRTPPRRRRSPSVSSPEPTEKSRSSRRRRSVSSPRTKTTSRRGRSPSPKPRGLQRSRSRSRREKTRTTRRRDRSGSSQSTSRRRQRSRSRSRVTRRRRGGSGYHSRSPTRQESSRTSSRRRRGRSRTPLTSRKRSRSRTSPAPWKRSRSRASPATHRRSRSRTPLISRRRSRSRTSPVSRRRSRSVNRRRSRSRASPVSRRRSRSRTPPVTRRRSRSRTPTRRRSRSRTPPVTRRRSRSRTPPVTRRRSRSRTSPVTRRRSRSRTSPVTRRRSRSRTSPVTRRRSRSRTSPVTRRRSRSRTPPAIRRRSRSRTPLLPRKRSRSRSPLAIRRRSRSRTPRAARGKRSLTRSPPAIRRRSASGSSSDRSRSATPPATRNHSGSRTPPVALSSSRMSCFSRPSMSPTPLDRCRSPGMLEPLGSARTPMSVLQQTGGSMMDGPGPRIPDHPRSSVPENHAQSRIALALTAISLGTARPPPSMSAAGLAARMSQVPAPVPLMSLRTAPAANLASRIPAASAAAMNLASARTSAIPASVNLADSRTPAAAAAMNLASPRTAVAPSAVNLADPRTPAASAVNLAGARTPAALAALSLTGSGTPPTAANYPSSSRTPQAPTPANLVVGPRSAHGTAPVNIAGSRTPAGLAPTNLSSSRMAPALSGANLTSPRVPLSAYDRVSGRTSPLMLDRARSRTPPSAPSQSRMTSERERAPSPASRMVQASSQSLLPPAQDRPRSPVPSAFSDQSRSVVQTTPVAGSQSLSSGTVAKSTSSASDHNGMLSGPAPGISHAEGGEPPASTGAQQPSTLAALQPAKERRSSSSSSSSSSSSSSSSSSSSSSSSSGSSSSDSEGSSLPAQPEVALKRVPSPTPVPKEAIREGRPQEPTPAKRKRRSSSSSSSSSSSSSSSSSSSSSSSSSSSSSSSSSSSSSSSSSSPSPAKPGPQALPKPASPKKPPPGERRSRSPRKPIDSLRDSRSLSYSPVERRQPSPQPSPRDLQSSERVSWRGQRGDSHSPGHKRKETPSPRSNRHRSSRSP
UniProt Q6P4T2: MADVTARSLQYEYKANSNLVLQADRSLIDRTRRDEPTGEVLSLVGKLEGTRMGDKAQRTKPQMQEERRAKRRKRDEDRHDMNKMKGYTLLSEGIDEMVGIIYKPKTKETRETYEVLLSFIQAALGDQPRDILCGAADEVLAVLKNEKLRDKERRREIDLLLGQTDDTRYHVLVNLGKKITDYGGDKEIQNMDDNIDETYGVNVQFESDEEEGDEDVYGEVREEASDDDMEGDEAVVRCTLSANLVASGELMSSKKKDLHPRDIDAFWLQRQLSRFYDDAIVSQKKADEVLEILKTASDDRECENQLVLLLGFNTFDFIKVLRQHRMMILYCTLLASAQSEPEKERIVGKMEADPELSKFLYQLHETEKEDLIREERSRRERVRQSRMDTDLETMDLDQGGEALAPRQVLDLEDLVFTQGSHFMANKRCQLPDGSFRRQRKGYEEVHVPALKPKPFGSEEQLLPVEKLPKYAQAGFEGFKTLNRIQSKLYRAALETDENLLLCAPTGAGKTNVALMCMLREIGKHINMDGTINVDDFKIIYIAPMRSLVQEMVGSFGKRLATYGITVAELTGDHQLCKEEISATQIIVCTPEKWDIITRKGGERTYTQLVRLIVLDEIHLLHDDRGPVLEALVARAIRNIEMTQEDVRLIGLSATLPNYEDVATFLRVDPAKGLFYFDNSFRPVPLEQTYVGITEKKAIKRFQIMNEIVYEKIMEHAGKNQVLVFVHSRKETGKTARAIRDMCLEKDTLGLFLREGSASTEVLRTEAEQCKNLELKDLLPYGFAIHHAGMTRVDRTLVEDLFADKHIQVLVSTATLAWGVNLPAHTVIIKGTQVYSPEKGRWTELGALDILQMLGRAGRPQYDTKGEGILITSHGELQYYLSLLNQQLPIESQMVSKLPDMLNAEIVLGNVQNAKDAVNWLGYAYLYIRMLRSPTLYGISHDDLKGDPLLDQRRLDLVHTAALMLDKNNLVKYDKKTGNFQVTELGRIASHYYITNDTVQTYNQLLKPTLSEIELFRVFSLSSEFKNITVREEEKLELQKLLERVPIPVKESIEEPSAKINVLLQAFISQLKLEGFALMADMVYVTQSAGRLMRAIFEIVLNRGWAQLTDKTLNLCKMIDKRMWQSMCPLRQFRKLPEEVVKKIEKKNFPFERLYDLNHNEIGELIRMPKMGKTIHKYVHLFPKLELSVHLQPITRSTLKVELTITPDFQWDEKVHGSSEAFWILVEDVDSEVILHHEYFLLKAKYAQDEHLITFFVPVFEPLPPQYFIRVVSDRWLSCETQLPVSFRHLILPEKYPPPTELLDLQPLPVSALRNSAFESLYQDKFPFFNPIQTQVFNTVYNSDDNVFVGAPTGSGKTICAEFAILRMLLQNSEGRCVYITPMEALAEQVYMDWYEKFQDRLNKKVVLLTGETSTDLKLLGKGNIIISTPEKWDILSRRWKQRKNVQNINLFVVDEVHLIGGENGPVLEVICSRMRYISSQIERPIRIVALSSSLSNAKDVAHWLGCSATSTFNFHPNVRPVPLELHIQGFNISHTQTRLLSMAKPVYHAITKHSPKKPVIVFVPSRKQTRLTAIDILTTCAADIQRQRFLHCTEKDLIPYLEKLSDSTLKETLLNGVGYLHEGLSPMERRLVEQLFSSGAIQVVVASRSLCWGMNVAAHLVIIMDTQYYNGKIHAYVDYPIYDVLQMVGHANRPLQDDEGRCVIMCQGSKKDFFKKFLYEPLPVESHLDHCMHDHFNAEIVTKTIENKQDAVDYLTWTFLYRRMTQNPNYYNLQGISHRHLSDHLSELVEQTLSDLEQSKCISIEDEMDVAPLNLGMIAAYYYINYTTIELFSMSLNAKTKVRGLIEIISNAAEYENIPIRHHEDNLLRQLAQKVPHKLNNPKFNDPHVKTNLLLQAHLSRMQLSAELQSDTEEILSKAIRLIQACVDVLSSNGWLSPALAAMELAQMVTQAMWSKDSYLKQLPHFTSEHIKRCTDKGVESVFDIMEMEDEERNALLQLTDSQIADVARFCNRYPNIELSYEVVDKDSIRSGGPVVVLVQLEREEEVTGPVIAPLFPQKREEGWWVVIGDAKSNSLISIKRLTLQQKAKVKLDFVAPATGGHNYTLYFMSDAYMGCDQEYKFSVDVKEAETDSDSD

B1: ACIN1 (protein, UniProt Q9JIX8 1-1338)
chain: MWGRKRPNSSGETRGILSGNRGVDYGSGRGQSGPFEGRWRKLPKMPEAVGTDPSTSRKMAELEEVTLDGKPLQALRVTDLKAALEQRGLAKSGQKSALVKRLKGALMLENLQKHSTPHAAFQPNSQIGEEMSQNSFIKQYLEKQQELLRQRLEREAREAAELEEASAESEDEMTHPEGVASLLPPDFQSSLNRPELELSTHSPRKSSSFSEEKGESDDEKPRKGERRSSRVRQAKSKLPEYSQTAEEEEDQETPSRNLRVRADRNLKIEEEEEEEEEEEDDDDEEEEEVDEAQKSREAEAPTLKQFEDEEGEERTRAKPEKVVDEKPLNIRSQEKGELEKGGRVTRSQEEARRSHLARQQQEKETQIVSLPQEENEVKSSQSLEEKSQSPSPPPLPEDLEKAPVVLQPEQIVSEEETPPPLLTKEASSPPTHIQLQEEMEPVEGPAPPVLIQLSPPNTDAGAREPLASPHPAQLLRSLSPLSGTTDTKAESPAGRVSDESVLPLAQKSSLPECSTQKGVESEREKSAPLPLTVEEFAPAKGITEEPMKKQSLEQKEGRRASHALFPEHSGKQSADSSSSRSSSPSSSSSPSRSPSPDSVASRPQSSPGSKQRDGAQARVHANPHERPKMGSRSTSESRSRSRSRSRSASSSSRKSLSPGVSRDSNTSYTETKDPSCGQEAAAPSGPQLQVLEPKEKAPTFSASVRGRHLSHPEPEQQHVIQRLQPEQGSPKKCEAEEAEPPAATQPQTSETQISHLLESERTHHTVEEKEEVTMDTSENRPENEVPEPPLPVADQVSNDERPEGGAEEEEKKESSMPKSFKRKISVVSATKGVQAGNSDTEGGQPGRKRRWGASTAATQKKPSISITTESLKSLIPDIKPLAGQEAVVDLHADDSRISEDETERNGDDGTHDKGLKICRTVTQVVPAEGQENGQREEEEEKEPEAELPAPPQVSVEVALPPPVEHEVKKVTLGDTLTRRSISQQKSGVSITIDDPVRTAQVPSPPRGKISNIVHISNLVRPFTLGQLKELLGRTGTLVEEAFWIDKIKSHCFVTYSTVEEAVATRTALHGVKWPQSNPKFLCADYAEQDELDYHRGLLVDRPSETKAEEQGAPRPLHPPPPPPVQPPPHPRAEQREQERAVREQWAEREREMERRERTRSEREWDRDKVREGPRSRSRSRDRRRKERAKSKEKKSEKKEKAQEEPPAKLLDDLFRKTKAAPCIYWLPLTESQIVQKEAEQAERAKEREKRRKEREEEEQKEREKEAERERNRQLEREKRREHSRERERDRERERDRGDRERERERDRDRGRERDRRDTKRHSRSRSRSTPVRDRGGRR
B2: RBMX2 (protein, UniProt Q8R0F5 1-326)
chain: MNPLTKVKLINELNEREVQLGVAEKVSWHSEYKHSAWIFVGGLPYELTEGDIICVFSQYGEIVNINLVRDKKTGKSKGFCFLCYEDQRSTVLAVDNFNGIKIKGRTIRVDHVSNYRAPQESEDVDDVTRELQEKGCGVKTPPSSPPEVSEDEDAKLTKKHKKDKKEKKKRKKEKTEGQAQAEQPSCSRSATVKEKKDERASRKHSSKTSERAQKSEHRESKKSHSGSPDGRSSYHARAEDPECKARKEKPKHEHKSASRREAEEKSRERERGRSSGTHSGRHRGHSDGRSHRSRSRSRSPDKSHRHKKYRHSRERDSYHGSDRRHH
B3: BUD13 (protein, UniProt Q8R149 1-637)
chain: MAAAPPLTKAEYLKRYLSGTDAGLEGGPEAGRKRRKKRPKPGGAGGKGMRIVDDDVGWAAISTAKPEKEEEEDGDLPVVAEFVDERPEEVKQMEAFRSSAKWKLLGGHGEDGHFHHDDQDSSPPRRVRHDTPDTSPPRKARHDTPDPSPPRKARHDTPDTSPPRKARHDTPDPSPPRKARHDTPDPSPPRRVRHDTPDLSPPRRVRHDTPDLSPPRRVRHDTPDPSPPRRVRHDLDASPPRKSHRNSSAVSPRRGHHGSLGTSSPRQTHNHSPTAAQHRRTLDSSGTQHLRRAHHESPDLELHKAKSSKAAERAPSKAASQSGLGPSHPSLSTNSKYEHDSDLSPPRKRQAKAHFEAKKQLDSKGVYQKASDSDLSPPRKKKNSGHQDSDSDLSPPRNRPRRQSSDSDLSPPRRRQRTKSSDSDLSPPRRSPRPGKKTAHMYSGAKTGLVTDVQREHQELKKQDQDTTDLGAQFEFTETVFRDKSGRKRNLKLERLEQRRKAEKDSERDELYAQWGKGLAQSRQQQQNVEDAMKEMQKPLARYIDDEDLDRMLREQEREGDPMANFIKKNKAKENKNKKVKPRYSGPAPPPNRFNIWPGYRWDGVDRSNGFEQKRFARLASKKAVEELAYKWSVEDM
B4: SFRS16 (protein, UniProt Q8CFC7 1-668)
chain: MWHEARKHERKLRGMMVDYKKRAERRREYYEKIKKDPAQFLQVHGRACKVHLDSAVALAAESPVNMMPWQGDTNNMIDRFDVRAHLDHIPDYTPPLLTTISPEQESDERKCNYERYRGLVQNDFAGISEEQCLYQIYIDELYGGLQRPSEDEKKKLAEKKASIGYTYEDSTVAEVEKVAEKPEEEESPAEEESNSDEDEVIPDIDVEVDVDELNQEQVADLNKQATTYGMADGDFVRMLRKDKEEAEAIKHAKALEEEKAMYSGRRSRRQRREFREKRLRGRKISPPSYARRDSPTYDPYKRSPSESSSESRSRSRSPSPGREEKITFITSFGGSDEEAAAAAAAAAASGAAPGKPPAPPQTGGPAPGRNASTRRRSSSSSASRTSSSRSSSRSSSRSRRGYYRSGRHARSRSRSWSRSRSRSRRYSRSRSRGRRHSDGGSRDGHRYSRSPARRGGYVPRRRSRSRSRSGDRYKRGARGPRHHSSSHSRSSWSLSPSRSRSVTRSGSRSQSRSRSRSQSHSQSQSHSPSPPREKLTRPAASPAVGEKLKKTEPAAGKETGAAKPKLTPQERLKLRMQKALNRQFKADKKAAQEKMIQQEHERQEREDELRAMARKIRMKERERREKEREEWERQYSRQSRSPSPRYSREYSSSRRRSRSRSRSPHYRH
B5: SRSF7 (protein, UniProt Q8BL97 1-267)
chain: MRSSARGRPLQAATAFFLSLFFFLRRFERGFWLWGGDSETKVYVGNLGTGAGKGELERAFSYYGPLRTVWIARNPPGFAFVEFEDPRDAEDAVRGLDGKVICGSRVRVELSTGMPRRSRFDRPPARRPFDPNDRCYECGEKGHYAYDCHRYSRRRRSRSRSRSHSRSRGRRYSRSRSRSRGRRSRSASPRRSRSVSLRRSRSASLRRSRSGSIIGSRYFQSRSRSRSRSRSISRPRSSRSKSRSPSPKRSRSPSGSPHRSASPERMD
B6: RNPS1 (RNA binding protein with serine-rich domain 1) (protein, UniProt Q99M28 1-305)
chain: MDLSGVKKKSLLGVKENNKKSSTRAPSPTKRKDRSDEKSKDRSKDKGATKESSEKDRGRDKTRKRRSASSGSSSTRSRSSSTSSSGSSTSTGSSSGSSSSSASSRSGSSSTSRSSSSSSSSGSPSPSRRRHDNRRRSRSKSKPPKRDEKERKRRSPSPKPTKVHIGRLTRNVTKDHIMEIFSTYGKIKMIDMPVERMHPHLSKGYAYVEFENPDEAEKALKHMDGGQIDGQEITATAVLAPWPRPPPRRFSPPRRMLPPPPMWRRSPPRMRRRSRSPRRRSPVRRRSRSPGRRRHRSRSSSNSSR

These are yes or no findings as the source states them, for the method shown. In cells and extracts the contact can be indirect. These calls come from enrichment with a bait or labelling near it, and not all partners need be listed. No binding means not detected with the bait. Tags and fused reporters may be left off the sequences shown.

The target of the test is T1, Flag-tagged full-length SNIP1 (Smad Nuclear Interacting Protein 1). Kind of test: affinity purification with mass spectrometry; Flag-co-IP from N2a cells stably expressing SNIP1-Flag, anti-FLAG M2 magnetic beads, IP buffer (150 mmol/L KCl, 25 mmol/L Tris pH 7.4, 5 mmol/L EDTA, 1% Nonidet P-40), 4 °C overnight; LC-MS/MS; three biological replicates.
On to PNN (from UniProt O35691 1-725), for which the binding entry is “binds”. On to SRm300 (from UniProt Q8BTI8 1-2703), for which the binding result is listed as “binds”. In the case of BRR2 (from UniProt Q6P4T2 1-2136) it was “binds”; in that of B1, “binds”. In the case of B2 it was “no binding”. As for B3, the binding entry is “no binding”. For B4 the value was “binds”; for B5, “binds”. In the case of B6 it was “binds”.

The values are drawn from PMC10166177.
